Reference: patent US12440493B2, “Combination therapy for treating cancer comprising substituted piperazines” (Eli Lilly and Company, priority 2020, dated 2025)
Where “and” joins values, the source holds several entries; their conditions need not be identical. Equal values may be shown once.

System: 2-HG production
Experiment: Plasma 2-HG inhibition (LC-MS metabolite analysis in plasma of AML PDx model)
Type: in vivo, human
Conditions: F: 50 mg/kg Midostaurin, QD, PO, one line per animal

For CO[C@@H]1[C@H](N(C)C(=O)c2ccccc2)C[C@H]2O[C@]1(C)n1c3ccccc3c3c4c(c5c6ccccc6n2c5c31)C(=O)NC4 [Midostaurin, reference compound], the “% Inhibition of 2-HG” value was 17.254% and 40.521% and 66.37% and −26.601% and 49.298%.
